Assay results reported in the supplement of paper PMC10849652.
The other results are listed elsewhere or left out.

Chains of the proteins cited; added tags and fusions are not shown. Lines headed by an entry give the natural chain unless they say otherwise; changes in a name come on top.
UniProt Q8NF50: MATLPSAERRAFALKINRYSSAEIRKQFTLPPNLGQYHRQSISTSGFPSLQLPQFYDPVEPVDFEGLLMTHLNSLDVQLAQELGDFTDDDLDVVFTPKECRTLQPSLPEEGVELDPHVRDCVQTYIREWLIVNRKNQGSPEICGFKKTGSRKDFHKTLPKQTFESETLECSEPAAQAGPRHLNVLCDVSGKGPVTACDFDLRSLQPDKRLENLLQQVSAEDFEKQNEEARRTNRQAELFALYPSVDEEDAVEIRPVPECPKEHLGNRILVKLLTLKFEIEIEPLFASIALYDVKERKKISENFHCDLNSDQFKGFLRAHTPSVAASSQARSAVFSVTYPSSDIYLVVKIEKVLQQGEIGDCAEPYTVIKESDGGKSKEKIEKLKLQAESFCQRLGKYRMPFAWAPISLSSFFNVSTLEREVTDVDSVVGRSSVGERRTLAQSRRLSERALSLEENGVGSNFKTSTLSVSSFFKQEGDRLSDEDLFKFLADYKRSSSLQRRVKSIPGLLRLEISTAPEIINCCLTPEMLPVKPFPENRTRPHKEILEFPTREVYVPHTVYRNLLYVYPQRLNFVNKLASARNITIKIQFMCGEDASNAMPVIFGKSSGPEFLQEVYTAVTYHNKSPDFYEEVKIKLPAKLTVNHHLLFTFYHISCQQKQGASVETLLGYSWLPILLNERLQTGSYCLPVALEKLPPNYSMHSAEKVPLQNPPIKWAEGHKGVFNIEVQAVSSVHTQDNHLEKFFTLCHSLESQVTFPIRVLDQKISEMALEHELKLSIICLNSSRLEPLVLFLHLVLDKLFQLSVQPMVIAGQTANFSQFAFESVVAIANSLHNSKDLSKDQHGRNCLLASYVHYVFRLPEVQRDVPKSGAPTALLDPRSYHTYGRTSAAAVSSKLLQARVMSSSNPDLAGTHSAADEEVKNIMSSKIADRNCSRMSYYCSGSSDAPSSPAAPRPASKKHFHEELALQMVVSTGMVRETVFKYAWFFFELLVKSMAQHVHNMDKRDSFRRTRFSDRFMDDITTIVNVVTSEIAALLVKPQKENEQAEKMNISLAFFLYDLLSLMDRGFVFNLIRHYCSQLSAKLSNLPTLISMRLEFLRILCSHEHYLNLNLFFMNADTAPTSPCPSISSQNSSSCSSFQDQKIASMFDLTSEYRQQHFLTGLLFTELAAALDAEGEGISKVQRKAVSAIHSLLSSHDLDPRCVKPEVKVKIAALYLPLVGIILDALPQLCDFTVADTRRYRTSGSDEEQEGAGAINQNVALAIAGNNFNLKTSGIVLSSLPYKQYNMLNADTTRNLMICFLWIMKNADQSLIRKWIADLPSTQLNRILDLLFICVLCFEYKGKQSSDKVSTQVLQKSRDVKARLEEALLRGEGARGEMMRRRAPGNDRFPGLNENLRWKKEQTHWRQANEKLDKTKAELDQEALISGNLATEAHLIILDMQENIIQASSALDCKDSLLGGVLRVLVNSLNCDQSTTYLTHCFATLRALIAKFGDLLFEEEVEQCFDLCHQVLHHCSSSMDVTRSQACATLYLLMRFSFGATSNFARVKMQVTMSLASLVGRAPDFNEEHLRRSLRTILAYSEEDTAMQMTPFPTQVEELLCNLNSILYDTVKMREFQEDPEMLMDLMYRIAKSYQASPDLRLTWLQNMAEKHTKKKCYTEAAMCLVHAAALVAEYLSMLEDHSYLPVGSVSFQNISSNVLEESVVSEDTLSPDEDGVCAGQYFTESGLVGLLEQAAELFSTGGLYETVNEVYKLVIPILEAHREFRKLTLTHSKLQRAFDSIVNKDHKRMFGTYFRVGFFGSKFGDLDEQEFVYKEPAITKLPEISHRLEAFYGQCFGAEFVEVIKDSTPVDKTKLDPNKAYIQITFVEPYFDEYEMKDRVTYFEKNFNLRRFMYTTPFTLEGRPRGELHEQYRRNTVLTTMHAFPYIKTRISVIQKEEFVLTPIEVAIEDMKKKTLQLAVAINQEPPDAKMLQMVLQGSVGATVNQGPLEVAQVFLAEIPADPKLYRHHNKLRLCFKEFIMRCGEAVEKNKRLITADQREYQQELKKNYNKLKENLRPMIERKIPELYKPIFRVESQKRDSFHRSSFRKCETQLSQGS
UniProt Q5JWR5: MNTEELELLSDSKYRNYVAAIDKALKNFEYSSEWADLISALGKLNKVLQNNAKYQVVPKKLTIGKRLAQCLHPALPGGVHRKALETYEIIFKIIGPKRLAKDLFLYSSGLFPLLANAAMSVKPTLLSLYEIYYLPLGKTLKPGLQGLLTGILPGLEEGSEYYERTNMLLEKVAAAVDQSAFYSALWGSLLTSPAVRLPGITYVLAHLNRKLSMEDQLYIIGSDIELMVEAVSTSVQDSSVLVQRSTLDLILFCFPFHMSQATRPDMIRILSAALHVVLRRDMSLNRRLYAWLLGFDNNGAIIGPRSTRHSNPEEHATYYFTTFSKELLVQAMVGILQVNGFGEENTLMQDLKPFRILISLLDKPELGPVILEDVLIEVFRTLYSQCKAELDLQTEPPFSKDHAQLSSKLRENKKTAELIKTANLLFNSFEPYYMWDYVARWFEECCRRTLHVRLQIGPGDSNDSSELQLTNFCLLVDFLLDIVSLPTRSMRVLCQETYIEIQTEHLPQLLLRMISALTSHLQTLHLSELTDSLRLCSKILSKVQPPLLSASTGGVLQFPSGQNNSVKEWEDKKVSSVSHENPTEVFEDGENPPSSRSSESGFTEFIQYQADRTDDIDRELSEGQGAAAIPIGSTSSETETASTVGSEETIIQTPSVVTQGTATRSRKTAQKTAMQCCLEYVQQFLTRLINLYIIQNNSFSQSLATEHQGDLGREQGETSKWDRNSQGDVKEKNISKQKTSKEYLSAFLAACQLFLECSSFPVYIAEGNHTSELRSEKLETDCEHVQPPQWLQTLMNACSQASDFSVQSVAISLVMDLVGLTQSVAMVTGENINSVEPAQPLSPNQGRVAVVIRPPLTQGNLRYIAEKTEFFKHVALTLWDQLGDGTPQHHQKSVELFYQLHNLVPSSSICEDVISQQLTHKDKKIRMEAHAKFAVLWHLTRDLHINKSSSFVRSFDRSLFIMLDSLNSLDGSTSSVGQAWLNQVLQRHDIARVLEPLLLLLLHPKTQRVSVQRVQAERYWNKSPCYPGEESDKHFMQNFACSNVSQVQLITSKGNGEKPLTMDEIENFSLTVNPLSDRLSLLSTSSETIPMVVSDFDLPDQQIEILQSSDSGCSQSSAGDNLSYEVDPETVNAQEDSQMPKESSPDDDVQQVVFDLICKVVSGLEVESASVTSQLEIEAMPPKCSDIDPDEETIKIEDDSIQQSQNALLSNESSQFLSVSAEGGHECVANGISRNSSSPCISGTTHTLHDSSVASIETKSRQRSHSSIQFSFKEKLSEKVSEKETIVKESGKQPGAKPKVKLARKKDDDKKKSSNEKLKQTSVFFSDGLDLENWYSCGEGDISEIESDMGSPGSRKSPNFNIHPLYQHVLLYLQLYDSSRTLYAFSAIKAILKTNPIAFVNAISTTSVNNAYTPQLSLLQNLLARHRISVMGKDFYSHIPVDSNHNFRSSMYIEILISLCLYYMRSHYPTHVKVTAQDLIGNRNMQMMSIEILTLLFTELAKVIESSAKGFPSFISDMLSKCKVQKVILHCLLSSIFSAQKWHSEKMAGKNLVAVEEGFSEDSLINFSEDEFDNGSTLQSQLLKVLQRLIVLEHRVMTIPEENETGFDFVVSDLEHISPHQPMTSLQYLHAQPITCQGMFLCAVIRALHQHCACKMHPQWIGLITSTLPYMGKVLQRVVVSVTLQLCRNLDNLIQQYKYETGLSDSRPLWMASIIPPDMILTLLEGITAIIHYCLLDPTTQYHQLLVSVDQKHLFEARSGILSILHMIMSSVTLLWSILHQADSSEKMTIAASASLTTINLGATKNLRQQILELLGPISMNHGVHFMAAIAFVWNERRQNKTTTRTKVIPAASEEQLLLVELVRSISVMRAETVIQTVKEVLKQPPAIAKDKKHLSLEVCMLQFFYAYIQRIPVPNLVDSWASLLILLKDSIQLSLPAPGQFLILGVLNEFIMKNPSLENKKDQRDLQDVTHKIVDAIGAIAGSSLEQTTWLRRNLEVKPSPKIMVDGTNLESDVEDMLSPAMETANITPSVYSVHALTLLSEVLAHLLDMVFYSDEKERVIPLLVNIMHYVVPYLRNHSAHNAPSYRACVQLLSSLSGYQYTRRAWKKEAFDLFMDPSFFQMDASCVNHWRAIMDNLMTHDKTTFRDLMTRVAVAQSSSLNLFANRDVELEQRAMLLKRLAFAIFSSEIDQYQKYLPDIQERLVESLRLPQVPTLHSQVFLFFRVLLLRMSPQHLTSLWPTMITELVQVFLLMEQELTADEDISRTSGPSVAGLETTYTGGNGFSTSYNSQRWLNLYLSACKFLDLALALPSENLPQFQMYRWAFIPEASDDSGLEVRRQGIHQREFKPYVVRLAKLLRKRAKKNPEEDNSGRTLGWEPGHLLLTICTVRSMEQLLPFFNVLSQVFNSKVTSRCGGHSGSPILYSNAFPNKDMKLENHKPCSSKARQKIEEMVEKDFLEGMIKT
UniProt O77932: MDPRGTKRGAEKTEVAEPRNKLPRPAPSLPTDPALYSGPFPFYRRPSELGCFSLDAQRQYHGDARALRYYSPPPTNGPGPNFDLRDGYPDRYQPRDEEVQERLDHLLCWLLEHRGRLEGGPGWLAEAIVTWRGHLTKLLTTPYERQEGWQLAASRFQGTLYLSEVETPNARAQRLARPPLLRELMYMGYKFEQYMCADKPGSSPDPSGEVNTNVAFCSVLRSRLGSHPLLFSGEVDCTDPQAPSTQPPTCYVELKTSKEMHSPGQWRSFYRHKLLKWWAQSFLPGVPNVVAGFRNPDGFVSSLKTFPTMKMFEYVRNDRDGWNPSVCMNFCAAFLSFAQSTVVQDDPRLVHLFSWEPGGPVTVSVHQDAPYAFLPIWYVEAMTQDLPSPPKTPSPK
UniProt Q05193: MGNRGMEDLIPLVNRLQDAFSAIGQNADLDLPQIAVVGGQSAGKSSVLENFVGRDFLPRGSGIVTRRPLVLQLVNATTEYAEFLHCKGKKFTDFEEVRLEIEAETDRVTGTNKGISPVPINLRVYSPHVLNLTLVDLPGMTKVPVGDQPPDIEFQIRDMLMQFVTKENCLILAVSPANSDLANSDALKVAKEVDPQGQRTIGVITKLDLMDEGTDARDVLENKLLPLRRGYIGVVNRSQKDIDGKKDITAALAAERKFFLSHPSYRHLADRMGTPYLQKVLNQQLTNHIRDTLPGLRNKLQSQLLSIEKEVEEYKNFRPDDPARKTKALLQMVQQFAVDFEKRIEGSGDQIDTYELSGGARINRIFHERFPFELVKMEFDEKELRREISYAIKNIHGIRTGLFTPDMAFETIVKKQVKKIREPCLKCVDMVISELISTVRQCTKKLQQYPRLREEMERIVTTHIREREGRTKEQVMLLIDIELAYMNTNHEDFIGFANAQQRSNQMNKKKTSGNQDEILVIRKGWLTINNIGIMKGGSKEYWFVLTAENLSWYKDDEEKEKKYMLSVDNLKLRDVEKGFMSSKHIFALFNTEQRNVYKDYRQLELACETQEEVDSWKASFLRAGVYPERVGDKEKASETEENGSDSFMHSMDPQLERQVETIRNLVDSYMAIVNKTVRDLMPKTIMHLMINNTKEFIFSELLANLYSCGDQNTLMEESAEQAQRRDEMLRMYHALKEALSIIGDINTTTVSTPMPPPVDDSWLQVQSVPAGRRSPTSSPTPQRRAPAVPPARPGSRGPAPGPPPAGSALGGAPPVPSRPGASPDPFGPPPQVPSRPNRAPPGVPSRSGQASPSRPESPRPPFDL
UniProt Q4LDG9: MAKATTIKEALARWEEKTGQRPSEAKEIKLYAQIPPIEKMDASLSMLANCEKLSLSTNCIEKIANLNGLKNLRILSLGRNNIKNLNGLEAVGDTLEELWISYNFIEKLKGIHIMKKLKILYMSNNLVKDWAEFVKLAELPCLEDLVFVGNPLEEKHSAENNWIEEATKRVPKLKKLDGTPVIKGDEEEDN
UniProt O95147: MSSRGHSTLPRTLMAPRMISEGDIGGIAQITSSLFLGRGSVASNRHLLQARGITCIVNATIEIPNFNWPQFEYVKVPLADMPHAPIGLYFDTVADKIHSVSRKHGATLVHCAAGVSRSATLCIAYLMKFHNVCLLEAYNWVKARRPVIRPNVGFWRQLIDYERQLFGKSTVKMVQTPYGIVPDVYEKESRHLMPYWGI
UniProt Q8TCX1: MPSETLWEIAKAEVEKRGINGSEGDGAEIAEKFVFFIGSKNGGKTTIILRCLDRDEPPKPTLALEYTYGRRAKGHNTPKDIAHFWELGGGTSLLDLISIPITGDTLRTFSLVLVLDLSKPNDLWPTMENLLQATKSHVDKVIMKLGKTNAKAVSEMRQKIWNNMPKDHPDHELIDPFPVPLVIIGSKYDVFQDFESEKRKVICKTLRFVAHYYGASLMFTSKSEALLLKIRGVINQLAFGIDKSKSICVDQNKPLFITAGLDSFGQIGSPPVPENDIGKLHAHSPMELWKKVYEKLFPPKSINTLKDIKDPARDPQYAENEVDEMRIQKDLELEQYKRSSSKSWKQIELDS

Tests used:
Assay in all cases: log2 fold change, soluble protein after heating vs DMSO (PISA); higher = thermal stabilisation; K562 cells, 10 uM, 30 min; active = over 0.2 and 3.5 SD of the protein, either way, in both replicates (recomputed)
[1] = compound: CS(=O)(=O)c1ccc(-c2cnc(N)c(C(=O)Nc3ccccc3)n2)cc1
In short: (§1)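 Thermal stability values are relative to control samples and come from duplicates. They are expressed as log2 fold changes. For measurement, K562 cells (2×10^6 cells/mL) received 10 μM compound for 30 min, and aliquots were heated for 3 min over 48°C-58°C, pooled, and extracted at 4°C in PBS with 0.5% NP-40. Soluble protein, the supernatant after 21,000xg for 90 min, was quantified by TMTpro 16plex LC-MS/MS with equalised channel sums.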

crizotinib = compound: C[C@@H](Oc1cc(-c2cnn(C3CCNCC3)c2)cnc1N)c1c(Cl)ccc(F)c1Cl [crizotinib]
In short: as §1

[2] = compound: C[C@@H]1COCCN1C2=NC(=NC(=C2)C3(CC3)S(=O)(=O)C)C4=C5C=CNC5=CC=C4
In short: as §1

[3] = compound: C[C@H](C1=CC=C(C=C1)C(=O)NC2=C3C=CNC3=NC=C2)N
In short: as §1

gandotinib = compound: Cc1cc(Nc2cc(CN3CCOCC3)c3nc(C)c(Cc4ccc(Cl)cc4F)n3n2)n[nH]1 [gandotinib]
In short: as §1

[4] = compound: Cc1cc(SCc2sc(-c3ccc(C(F)(F)F)cc3)nc2C)ccc1OCC(=O)O
In short: as §1

doramapimod = compound: Cc1ccc(-n2nc(C(C)(C)C)cc2NC(=O)Nc2ccc(OCCN3CCOCC3)c3ccccc23)cc1 [doramapimod]
In short: as §1

ispinesib = compound: Cc1ccc(C(=O)N(CCCN)[C@@H](c2nc3cc(Cl)ccc3c(=O)n2Cc2ccccc2)C(C)C)cc1 [ispinesib]
In short: as §1

bafetinib = compound: Cc1ccc(NC(=O)c2ccc(CN3CC[C@H](N(C)C)C3)c(C(F)(F)F)c2)cc1Nc1nccc(-c2cncnc2)n1 [bafetinib]
In short: as §1

[5] = compound: Cc1cccc(CC(=O)N2CCc3c2ccc(-c2cn(C)c4ncnc(N)c24)c3F)n1
In short: as §1

nilotinib = compound: Cc1cn(-c2cc(NC(=O)c3ccc(C)c(Nc4nccc(-c5cccnc5)n4)c3)cc(C(F)(F)F)c2)cn1 [nilotinib]
In short: as §1

[6] = compound: Cc1nc(Nc2n[nH]c3c2CN(C(=O)N[C@H](CN(C)C)c2ccccc2)C3(C)C)c2sccc2n1
In short: as §1

dasatinib = compound: Cc1nc(Nc2ncc(C(=O)Nc3c(C)cccc3Cl)s2)cc(N2CCN(CCO)CC2)n1 [dasatinib]
In short: as §1

[7] = compound: Cc1ncc(-c2ccnc(Nc3ccc(S(C)(=O)=O)cc3)n2)n1C(C)C
In short: as §1

[8] = compound: Cn1cc(-c2ccc3c(c2)CCN3C(=O)Cc2cccc(C(F)(F)F)c2)c2c(N)ncnc21
In short: as §1

[9] = compound: Cn1cc(-c2ccc3nnc(C(F)(F)c4ccc5ncccc5c4)n3n2)cn1
In short: as §1

mubritinib = compound: FC(F)(F)c1ccc(/C=C/c2nc(COc3ccc(CCCCn4ccnn4)cc3)co2)cc1 [mubritinib]
In short: as §1

tozasertib = compound: Cc1cc(Nc2cc(N3CCN(C)CC3)nc(Sc3ccc(NC(=O)C4CC4)cc3)n2)n[nH]1 [tozasertib]
In short: as §1

tipifarnib = compound: Cn1cncc1[C@@](N)(c1ccc(Cl)cc1)c1ccc2c(c1)c(-c1cccc(Cl)c1)cc(=O)n2C [tipifarnib]
In short: as §1

duvelisib = compound: C[C@H](Nc1ncnc2nc[nH]c12)c1cc2cccc(Cl)c2c(=O)n1-c1ccccc1 [duvelisib]
In short: as §1

Measured: log2 fold change

DOCK8 (UniProt Q8NF50)
inactive: [1] 0.216 | crizotinib -0.011 | [2] -0.075 | gandotinib 0.146 | [4] -0.036 | doramapimod -0.004 | ispinesib -0.402 | bafetinib -0.076 | [5] -0.055 | nilotinib 0.069 | [6] -0.057 | dasatinib 0.052 | [7] -0.126 | [8] -0.14 | [9] -0.067 | mubritinib 0.021
active: [3] 0.67

DYSF isoform 13 (UniProt O75923)
inactive: [1] -0.089 | crizotinib 0.01 | [2] -0.059 | gandotinib 0.029 | tozasertib -0.018 | doramapimod -0.027 | ispinesib -0.124 | bafetinib 0.162 | [5] 0.05 | nilotinib 0.111 | [6] -0.041 | [7] 0.162 | [9] -0.05 | mubritinib 0.15

DRAM2 (UniProt Q6UX65)
inactive: [1] 0.011 | crizotinib -0.763 | [2] 0.034 | [3] -0.054 | tozasertib -0.072 | doramapimod -0.157 | [8] -0.043 | tipifarnib 0.25 | mubritinib 0.044

DYNC1I1 (UniProt O14576)
inactive: [2] 0.14 | ispinesib 0.149 | [9] 0 | tipifarnib 0.007

DNAJC4 (UniProt Q9NNZ3)
inactive: ispinesib -0.178 | [9] -0.043 | tipifarnib 0.192

DOP1A (UniProt Q5JWR5)
inactive: [2] 0.007 | bafetinib -0.091 | mubritinib 0.127

DOLPP1 (UniProt Q86YN1)
active: ispinesib 0.358
inactive: crizotinib -0.082 | [3] -0.135 | doramapimod -0.026 | bafetinib -0.089 | nilotinib 0.035 | [6] -0.062 | [7] -0.023 | [8] -0.045 | [9] -0.006 | tipifarnib 0.075 | mubritinib 0.021

DNMT3B (UniProt Q9UBC3)
inactive: duvelisib 0.683 | gandotinib 0.05 | [4] 0.388 | [5] 0.068 | dasatinib -0.024

DNAJB1 (UniProt M0R128)
inactive: [3] -0.018 | bafetinib -0.252 | [8] -0.022

DROSHA (UniProt Q9NRR4)
inactive: [2] -0.219 | [3] 0.441 | tozasertib 0.209 | [8] -0.284

DYNLT3 (UniProt P51808)
inactive: [3] -0.088 | bafetinib -0.064 | nilotinib 0.014 | [6] -0.064 | [7] -0.089 | [8] -0.061

DXO (UniProt O77932)
inactive: crizotinib 0.022 | [2] 0.093 | [3] 0 | duvelisib 0.223 | gandotinib -0.119 | tozasertib -0.075 | [4] -0.059 | doramapimod -0.001 | ispinesib -0.053 | bafetinib 0 | [5] -0.097 | nilotinib 0.046 | [6] 0 | dasatinib -0.04 | [7] -0.008 | [8] 0.012 | [9] 0.046 | mubritinib 0.088

DNAJB2 (UniProt P25686)
inactive: [2] -0.08 | duvelisib 0.084 | gandotinib -0.065 | [4] 0.005 | ispinesib 0.01 | [5] 0.159 | dasatinib -0.129 | [9] -0.037 | tipifarnib 0.052

DNM1 (UniProt Q05193)
inactive: [2] -0.174 | gandotinib -0.2 | [5] 0.048

DPYSL3 isoform 2 (UniProt Q14195)
inactive: duvelisib 0.492 | gandotinib -0.137 | [4] 0.257 | [5] 0 | dasatinib -0.443 | tipifarnib 0.043

DNAL1 (UniProt Q4LDG9)
inactive: crizotinib -0.035 | [2] 0.011 | [3] 0.025 | [4] -0.102 | doramapimod -0.067 | ispinesib -0.082 | bafetinib 0.035 | dasatinib 0.017 | [8] 0.186 | [9] 0.012

DRAP1 (UniProt E9PQX9)
inactive: tozasertib -0.119 | tipifarnib 0.094 | mubritinib 0.274

DUSP14 (UniProt O95147)
inactive: [2] -0.382 | [3] 0.076 | duvelisib -0.185 | gandotinib -0.215 | tozasertib 0.035 | [4] 0.106 | bafetinib 0.135 | [5] 0.027 | dasatinib 0.058 | [8] 0.084 | mubritinib 0.149

DYNC2LI1 isoform 2 (UniProt Q8TCX1)
inactive: [1] -0.004 | [2] 0.101 | [3] 0.077 | ispinesib 0.051 | [8] 0.183 | [9] -0.044 | tipifarnib -0.081 | mubritinib -0.139

DVL2 (UniProt O14641)
inactive: [1] 0.103 | [2] -0.084 | gandotinib 0.347 | [5] 0.045 | tipifarnib 0.217

Retrieved one by one from above, 2 records:
DNAJB1 (UniProt M0R128)
inactive: [3] -0.018 | bafetinib -0.252 | [8] -0.022

DUSP14 (UniProt O95147)
inactive: [2] -0.382 | [3] 0.076 | duvelisib -0.185 | gandotinib -0.215 | tozasertib 0.035 | [4] 0.106 | bafetinib 0.135 | [5] 0.027 | dasatinib 0.058 | [8] 0.084 | mubritinib 0.149
